According to PMC11489176:
Results are given in words; binding and its absence hold for the method and conditions named. Some results given as binding are weak or reduced against the parent protein; the word gives no strength.

Target: PRDX1 (Peroxiredoxin 1), endogenous in HCT116 cells (human (endogenous in HCT116)) (UniProt Q06830)
Test: non-reducing PAGE and Western blot; HCT116 cells treated with different doses of CoA for 2 h; lysed in non-denaturing lysis buffer, boiled in non-reducing loading buffer, blotted for PRDX1 dimer and oligomer (Fig. 5I)

B1: PRDX1 (Peroxiredoxin 1), endogenous in HCT116 cells (protein, UniProt Q06830 1-199)
chain: MSSGNAKIGHPAPNFKATAVMPDGQFKDISLSDYKGKYVVFFFYPLDFTFVCPTEIIAFSDRAEEFKKLNCQVIGASVDSHFCHLAWVNTPKKQGGLGPMNIPLVSDPKRTIAQDYGVLKADEGISFRGLFIIDDKGILRQITVNDLPVGRSVDETLRLVQAFQFTDKHGEVCPAGWKPGSDTIKPDVQKSKEYFSKQK
- binding: binds
